## Screening data

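Luminescence from an EWS-FLI1 target-promoter (NR0B1) reporter, set against a CMV-promoter reporter, two days after silencing single genes in TC32 Ewing sarcoma cells. Each siRNA was applied at 20 nM. A z-score of the log NR0B1-over-CMV signal, less the median of siRNAs with the same seed; more negative means a stronger specific loss of the NR0B1 reporter.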

The strongest results of the screen are mostly left out here. Sequences are the guide (antisense) strand, without overhang.

Sequence	gene	seed-corrected z-score
UAUGAUGUCGGCUUGCUGC	RTEL1	-0.6793
UCUAUGCCCAUCAUGGUCU	B3GALT5	-0.7335
AGCUGUAUAAUCUUACCUC	PDGFC	-1.138
AAUCUCUCCACUAAUAUAU	CFAP46	0.378
UUUGUGAUCACACAUGCGU	PSMB10	-0.1611
UAGGAUGACAGGUUCCACA	ARVCF	0.4043
UAUGUUGAGUCGGACAGCC	SIGLEC12	-1.231
UAACCUUAUCACAACAUCG	ST3GAL5	-0.4152
UUUAUACCAUUUGUAGAUG	AGA	0.3216
AAAGAGAUCAUAGCAGACA	ZFPL1	-0.02746
UUUGCCUUCAUCAACAUCC	LDHAL6A	-0.3421
UUUCGAAAACAAGCUAAUG	CDC27	0.6406
UCGCGUAACCUUGAUGAGC	CNNM3	-0.2324
UACCGCAUAUGUAAUGAUG	MFSD2A	0.1258
UUAUCUCUCAAGGCACUAG	NBEAL1	1.242
UCGGGUACCAUUCGCGUUC	GADD45GIP1	-0.5693
AUAAUUCCCAAUGUUAUAG	P3H1	-0.8128
AAACCGAACAAAGACAUCC	CC2D1A	0.2343
AAACCAAUUGGUUUUCCGC	THG1L	0.5757
UCAUUGAUCUUGUCACGCC	USP19	-1.138
UCUCGUUUGAGGUUGGUCC	GFI1B	0.8223
ACAGUUACAAUCCCAUUAG	TGFBI	0.4503
UAUCUUGCCGUUGUUCAGG	DPPA2	-0.03818
UAGGAUAAAUAGAAUAGAC	AP4E1	-0.09257
UCCCGUUUUACUUCACUCC	ITSN2	0.7329
AAUGUCUUUAACAAGUUUC	ZFAND1	-0.3272
UUCUGGAGACUUCUCAUCG	PIRT	-1.015
UUUCAGGUGAGUCAAAACC	PTK6	-0.2319
AUUGAGACAUGAGUCCUGU	PDCD1	-0.5471
UGUCAUAACAUCGAACCCG	NOL10	0.1485
AUUUGUCCAACUCAAUGAG	RHOU	-0.05401
UUUAUGCUGCCUGUUAACG	TICAM2	-1.121
UUAAUGAAUGUGAUUGUCU	KRTAP4-5	1.227
UGGACAAAGGUAGUGGCUC	GNB3	0.7584
UCAUCUGACAGCAACUUCU	AP5S1	0.1896
UUGGUCAAAACAGGUGUAG	CDC14A	0.1947
UACCUUCGAAGAAAUUUCC	PLEKHA1	0.9416
ACAUGUAUCUCAAUCUUGC	DPPA3	0.239
UCGGUCAUCUUGUCGAUCU	DKKL1	0.6275
UGCUCAUUAAACUCUGUGC	VSNL1	-0.06497
UCAGGGCCCACAAACACAC	FKBP2	-0.5759
UGCCUGAAUGUAGCUCUGC	SNX19P3	-0.547
UGUCUCAAUAACACUGUGC	LOC100289470	0.5966
UCAGCAGUCACAGGACCAC	KCNK7	1.403
UGUCAAACUUGCGAUGACC	TTL	0.3607
UCAGGGACCACAAACGUGU	LOC401123	-0.216
UAUAUAGAUACAGACAAUG	MFSD2A	0.1186
UAAUGGACAGUAGGCCUCC	PIGC	-0.08969
UCAUUAUGAAGUAUCGAAC	YTHDC2	-0.7935
UUUGGGUAAUCAAUGAAGC	PLAU	-0.6857
AAAGAGUAAAUGCGUAUUG	TMC7	-0.1621
UAACUGAUUUCAGUGCAGC	LURAP1	0.1895
UUCGCUUUGCUACUUGUCC	SLC7A14	-0.5099
AAACCUUCACAAAAGACUC	RPL27P8	0.1059
AACGUGAAGGCUAUCUUCU	MRPL52	-1.034
UACUCUAUGAUGUCCAAUG	ZSCAN16	0.5008
UUAAGUUCCAGUCGUACUC	CALR3	0.342
AGAGUUCUGACCACGAAGC	NOP9	-0.6868
UUCCGUGAUGGUGUAGGUC	XCL2	0.8499
UUGGGUAGAAUGAUGUUCC	KIF15	-1.209
UCCUGUUCCUUAUUGACUG	LYAR	-0.01049
AUCCGUAACAAGAGCAACC	CLTC	-1.444
AGAACUUCCAGAAUCAGCC	SPP1	-0.4321
UUUGUAGCAGCUAUCACUG	COA7	-1.288
UCUGGAAGAAGUACCGCUG	ADCY6	-0.9013
AAUGCAUCCAGUAGAAUCG	SNUPN	-0.1521
UUUACUUCCUUUGUAGUGG	ZNF385B	-0.06797
UUUGAUUUCCUCGAAGGGC	METTL25	-0.4126
UUCAGGACAACCACAUUCU	ACCS	0.4509
UAAUAUGGAACGAUGGGUU	PPOX	-0.4832
UCUGUAAGAAGUGACAGUC	ANGEL2	-0.4296
UACCAGGUCAGUGACCACC	MFSD13A	-0.1836
UUGGAUGUGGGUCACGUGC	TBATA	0.2088

The last 4 entries again:

| Sequence | gene | seed-corrected z-score |
|---|---|---|
| `UAAUAUGGAACGAUGGGUU` | PPOX | -0.4832 |
| `UCUGUAAGAAGUGACAGUC` | ANGEL2 | -0.4296 |
| `UACCAGGUCAGUGACCACC` | MFSD13A | -0.1836 |
| `UUGGAUGUGGGUCACGUGC` | TBATA | 0.2088 |

From PubChem BioAssay record AID1159506 (NCATS, 2015).